Data taken from article PMC9844640.
These are yes or no findings as the source states them, for the method shown. Sequences can lack the tags named with a protein.

Protein sequences, listed by entry. Tags and fused reporters are not part of them.
UniProt P54619: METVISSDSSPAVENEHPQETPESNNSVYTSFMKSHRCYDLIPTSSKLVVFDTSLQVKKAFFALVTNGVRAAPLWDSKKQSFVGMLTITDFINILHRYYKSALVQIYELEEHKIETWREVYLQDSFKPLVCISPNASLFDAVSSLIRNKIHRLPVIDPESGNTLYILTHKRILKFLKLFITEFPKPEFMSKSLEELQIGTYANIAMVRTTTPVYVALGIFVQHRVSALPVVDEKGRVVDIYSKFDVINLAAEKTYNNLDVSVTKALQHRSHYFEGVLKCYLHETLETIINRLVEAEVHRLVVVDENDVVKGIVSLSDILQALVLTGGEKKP

Target: T1, GST‐TPD52 (UniProt P55327)
T1 sequence: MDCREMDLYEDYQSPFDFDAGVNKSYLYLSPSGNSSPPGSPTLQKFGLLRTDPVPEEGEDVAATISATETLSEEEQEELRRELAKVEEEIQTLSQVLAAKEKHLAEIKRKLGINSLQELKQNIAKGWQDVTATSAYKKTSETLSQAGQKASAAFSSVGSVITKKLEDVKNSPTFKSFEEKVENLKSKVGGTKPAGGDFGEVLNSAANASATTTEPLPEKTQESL
Assay: pull-down; GST pull-down in vitro: GST-TPD52 with His-tagged AMPK subunits or AMPKα1 kinase domain, all purified from E. coli (Figure 1B, 1D); both purified

binding: no binding
Substance: His‐tagged AMPKγ1 (from UniProt P54619 1-331)
